In publication doi:10.1101/2023.10.25.563799:

B1: apicomplexan-specific kinetochore protein 7 (protein, UniProt A0A509AF39 1-832)
chain: MDNKDEITSIGNKNKDEEIFKLRKLVSIFKNECKKLKEENDNLKKNERSESLEKKNESNVENSDGNVSEYGTDIQEKNEIIKRSIIEKSYKKLKDFTILLEDRLKNVKLESEKKCVELENKIEECNKNKKIYITEIGNLKEKLREQNSVIDGLNKKIEEYKIYLRSEKNVQACYENNIDQTIEYKIEIRKLKENIETLKKNNEITSKERQQYRSMIILCSQYKEKCKQIPNFQNKIDLLENQIKEMEIYKYKDNENIKKLTELKNTIINNQIENNNLKTQLNEWVNFAKIYINSKSINIDTLKKTMNELNNKYNEANSTKTDLEFKYRKIVVDIEVQKQLLEDKNFELKILKNKNMRLEKKYEFLKKDYLLEFTKNSTHISTTSILQNKNDEKGNEDNYKIEDIESVLPTNISSVLNEKYNEHDSEEIKKNKIENLLKLAQNYKYKIDFFQNDNLEKEKLIEELNNKIDKYKTDFENTQLKEKNIQVFTQDLLLYEKEINFLKEHAEIYKKQILNLENELANINNLWKEDNEKNEISIKNLKEALKKAQFEAKILANSSSSISGKNIIETKDTKNDSTFLYKDIDNMNSIDEIQIKNLKNENLYLKAKIEVIKIYYANQIKSFREAFLYILGWDIQIEQNDEEIFFIFTSMFSTHDGKFIFIKDKMQNDKRSYNKEKDEYEKFKRIKLEHDPTSDTSKIDPTSEKTKDEISYSTEQTSQCAVEKNLDTDEQFFAGLFGNKNQINAERIIDKINLKNTNINMSTIMKGCKYNLLLQGYYSIKWNENAEWKKYINKMTTYPILLSLLCIEEYNSIKSQYHNSLCKNSRSILFKI

target: PbARPC1-GFP (P. berghei); assay: affinity purification with mass spectrometry

| Molecule | binding |
| --- | --- |
| Alp5a (from UniProt A0A509AIH3) | binds |
| Alp5b (from UniProt A0A509AML7) | binds |
| PBANKA_1229300 (from UniProt A0A509AQK9) | binds |
| PbARPC2 (PBANKA_1014200) (from UniProt A0A509AMR4) | binds |
| B1 | binds |

Results are given in words; binding and its absence hold for the method and conditions named. In cells and extracts the contact can be indirect. A yes stands for co-enrichment or nearness to the bait. Other partners may have been found.
